Reference: the supplement of paper PMC10849652
The list shows a part of the results.

Amino acid sequences for entries named in this document (tags omitted). A change or cut given only in a name is not applied to a line headed by its entry.
UniProt Q9P003: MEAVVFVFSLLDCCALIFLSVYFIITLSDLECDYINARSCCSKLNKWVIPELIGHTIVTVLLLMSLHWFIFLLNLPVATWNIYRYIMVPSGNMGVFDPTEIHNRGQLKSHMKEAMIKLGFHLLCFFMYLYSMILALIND
UniProt Q9BRF8, whole entry, looked up: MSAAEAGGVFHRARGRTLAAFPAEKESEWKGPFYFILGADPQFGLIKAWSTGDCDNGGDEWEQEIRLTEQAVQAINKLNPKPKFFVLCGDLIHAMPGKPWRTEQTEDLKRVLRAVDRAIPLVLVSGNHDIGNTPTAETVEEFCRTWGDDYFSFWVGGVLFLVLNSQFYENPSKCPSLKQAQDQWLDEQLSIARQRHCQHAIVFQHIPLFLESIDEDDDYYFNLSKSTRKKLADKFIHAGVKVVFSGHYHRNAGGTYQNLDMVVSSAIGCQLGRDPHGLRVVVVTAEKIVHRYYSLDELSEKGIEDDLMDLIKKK
UniProt Q7KZN9: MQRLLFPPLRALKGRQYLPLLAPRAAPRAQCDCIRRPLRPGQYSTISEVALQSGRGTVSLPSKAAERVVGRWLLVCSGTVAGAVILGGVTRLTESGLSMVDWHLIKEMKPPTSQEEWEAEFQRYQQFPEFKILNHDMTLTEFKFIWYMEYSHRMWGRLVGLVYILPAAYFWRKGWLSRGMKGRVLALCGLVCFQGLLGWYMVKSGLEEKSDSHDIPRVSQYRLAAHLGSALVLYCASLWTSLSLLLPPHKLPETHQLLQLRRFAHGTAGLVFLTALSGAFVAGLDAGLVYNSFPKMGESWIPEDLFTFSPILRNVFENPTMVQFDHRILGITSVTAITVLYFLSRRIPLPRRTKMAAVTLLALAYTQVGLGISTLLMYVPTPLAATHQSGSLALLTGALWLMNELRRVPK
UniProt P57737: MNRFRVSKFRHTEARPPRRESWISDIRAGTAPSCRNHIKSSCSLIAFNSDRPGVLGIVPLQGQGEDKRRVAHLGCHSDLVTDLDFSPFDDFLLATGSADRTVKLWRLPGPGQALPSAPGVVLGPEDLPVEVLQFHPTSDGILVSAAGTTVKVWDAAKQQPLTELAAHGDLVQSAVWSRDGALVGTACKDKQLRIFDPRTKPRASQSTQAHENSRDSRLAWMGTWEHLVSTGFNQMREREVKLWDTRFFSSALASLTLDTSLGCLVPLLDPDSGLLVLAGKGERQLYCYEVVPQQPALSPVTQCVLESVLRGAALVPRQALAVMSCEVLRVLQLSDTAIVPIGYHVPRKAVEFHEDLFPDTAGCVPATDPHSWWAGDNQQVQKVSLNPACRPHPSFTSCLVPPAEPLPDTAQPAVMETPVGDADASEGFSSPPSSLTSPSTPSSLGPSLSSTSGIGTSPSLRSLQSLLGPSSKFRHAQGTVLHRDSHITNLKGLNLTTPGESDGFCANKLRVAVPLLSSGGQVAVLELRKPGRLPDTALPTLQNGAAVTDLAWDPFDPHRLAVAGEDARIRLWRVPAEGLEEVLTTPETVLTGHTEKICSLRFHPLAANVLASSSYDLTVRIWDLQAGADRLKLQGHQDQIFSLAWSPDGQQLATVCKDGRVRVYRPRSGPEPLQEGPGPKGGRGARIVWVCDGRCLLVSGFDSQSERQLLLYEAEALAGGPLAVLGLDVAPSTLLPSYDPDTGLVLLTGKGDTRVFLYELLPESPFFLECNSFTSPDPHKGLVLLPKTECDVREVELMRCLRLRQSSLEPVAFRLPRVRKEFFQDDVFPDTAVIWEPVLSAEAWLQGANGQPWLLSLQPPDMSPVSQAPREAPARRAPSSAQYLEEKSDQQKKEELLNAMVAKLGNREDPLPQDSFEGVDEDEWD
UniProt Q9Y678: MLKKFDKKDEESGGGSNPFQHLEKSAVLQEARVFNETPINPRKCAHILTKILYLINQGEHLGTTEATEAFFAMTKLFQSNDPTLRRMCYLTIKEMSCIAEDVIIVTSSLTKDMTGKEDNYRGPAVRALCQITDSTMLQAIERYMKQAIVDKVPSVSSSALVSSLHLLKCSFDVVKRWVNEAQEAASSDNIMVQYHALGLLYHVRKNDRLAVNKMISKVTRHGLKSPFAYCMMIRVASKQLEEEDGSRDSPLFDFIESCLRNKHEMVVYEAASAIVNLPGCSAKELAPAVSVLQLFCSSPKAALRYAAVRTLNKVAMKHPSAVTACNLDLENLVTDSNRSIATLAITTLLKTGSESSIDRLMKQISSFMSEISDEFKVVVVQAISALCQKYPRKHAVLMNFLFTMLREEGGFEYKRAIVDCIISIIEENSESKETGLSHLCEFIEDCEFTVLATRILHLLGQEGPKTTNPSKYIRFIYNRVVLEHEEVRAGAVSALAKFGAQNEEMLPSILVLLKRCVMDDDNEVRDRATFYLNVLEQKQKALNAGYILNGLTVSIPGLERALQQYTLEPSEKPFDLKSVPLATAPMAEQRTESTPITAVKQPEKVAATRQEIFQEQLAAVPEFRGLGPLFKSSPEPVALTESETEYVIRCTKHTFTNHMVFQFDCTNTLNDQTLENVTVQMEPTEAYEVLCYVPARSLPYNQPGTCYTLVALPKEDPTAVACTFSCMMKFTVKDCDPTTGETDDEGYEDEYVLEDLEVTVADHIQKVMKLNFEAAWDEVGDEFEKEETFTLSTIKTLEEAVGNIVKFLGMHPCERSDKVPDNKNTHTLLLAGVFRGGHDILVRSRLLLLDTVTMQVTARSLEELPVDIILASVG
UniProt Q9Y6G5, whole entry, looked up: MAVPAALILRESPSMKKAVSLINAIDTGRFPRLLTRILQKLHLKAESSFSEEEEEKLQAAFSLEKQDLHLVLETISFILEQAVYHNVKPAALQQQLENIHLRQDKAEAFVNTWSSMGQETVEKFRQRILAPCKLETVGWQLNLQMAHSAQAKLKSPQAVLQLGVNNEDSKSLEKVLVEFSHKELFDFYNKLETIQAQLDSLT
UniProt Q5HYK3: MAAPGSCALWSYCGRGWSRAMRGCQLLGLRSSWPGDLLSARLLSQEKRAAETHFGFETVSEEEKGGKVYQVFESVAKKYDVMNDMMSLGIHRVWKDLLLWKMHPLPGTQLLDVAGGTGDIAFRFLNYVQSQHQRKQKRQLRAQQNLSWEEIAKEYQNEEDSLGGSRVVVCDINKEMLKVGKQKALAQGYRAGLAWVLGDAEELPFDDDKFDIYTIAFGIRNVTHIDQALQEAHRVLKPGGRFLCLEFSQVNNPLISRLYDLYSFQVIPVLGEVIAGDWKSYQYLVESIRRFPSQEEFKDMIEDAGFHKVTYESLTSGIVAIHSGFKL
UniProt O14579: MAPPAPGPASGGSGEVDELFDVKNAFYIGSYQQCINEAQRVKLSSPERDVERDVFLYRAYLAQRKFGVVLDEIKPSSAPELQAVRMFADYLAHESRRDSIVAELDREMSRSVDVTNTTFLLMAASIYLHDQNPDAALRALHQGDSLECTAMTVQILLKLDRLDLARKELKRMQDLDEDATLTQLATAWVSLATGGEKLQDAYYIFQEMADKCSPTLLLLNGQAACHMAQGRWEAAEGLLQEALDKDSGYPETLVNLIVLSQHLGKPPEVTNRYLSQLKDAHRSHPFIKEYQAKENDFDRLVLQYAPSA
UniProt Q9NQ92: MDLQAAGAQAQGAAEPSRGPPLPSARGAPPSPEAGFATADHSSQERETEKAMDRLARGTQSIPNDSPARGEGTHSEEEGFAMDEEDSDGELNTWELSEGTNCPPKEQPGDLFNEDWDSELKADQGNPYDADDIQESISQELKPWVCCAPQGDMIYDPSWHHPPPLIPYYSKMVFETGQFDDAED
UniProt P50416: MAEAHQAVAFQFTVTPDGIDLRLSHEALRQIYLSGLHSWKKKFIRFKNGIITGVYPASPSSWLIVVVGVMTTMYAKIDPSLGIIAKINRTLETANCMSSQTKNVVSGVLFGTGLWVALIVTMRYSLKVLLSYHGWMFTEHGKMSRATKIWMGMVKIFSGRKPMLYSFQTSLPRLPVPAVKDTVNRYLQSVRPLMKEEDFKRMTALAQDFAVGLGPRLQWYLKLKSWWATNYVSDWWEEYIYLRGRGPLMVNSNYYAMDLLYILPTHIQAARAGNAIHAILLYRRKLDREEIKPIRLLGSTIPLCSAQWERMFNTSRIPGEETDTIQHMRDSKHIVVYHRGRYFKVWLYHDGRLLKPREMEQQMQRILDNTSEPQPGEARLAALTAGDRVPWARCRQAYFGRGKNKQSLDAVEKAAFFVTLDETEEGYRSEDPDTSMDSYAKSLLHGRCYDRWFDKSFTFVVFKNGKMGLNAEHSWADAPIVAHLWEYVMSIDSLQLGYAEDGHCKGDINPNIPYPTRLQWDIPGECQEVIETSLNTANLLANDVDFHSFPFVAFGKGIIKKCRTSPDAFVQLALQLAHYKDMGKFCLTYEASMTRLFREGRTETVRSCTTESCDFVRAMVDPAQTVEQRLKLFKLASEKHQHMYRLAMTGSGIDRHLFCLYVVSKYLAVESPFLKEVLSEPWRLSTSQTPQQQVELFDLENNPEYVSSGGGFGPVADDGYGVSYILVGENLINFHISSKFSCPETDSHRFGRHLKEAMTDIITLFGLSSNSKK
UniProt Q13057: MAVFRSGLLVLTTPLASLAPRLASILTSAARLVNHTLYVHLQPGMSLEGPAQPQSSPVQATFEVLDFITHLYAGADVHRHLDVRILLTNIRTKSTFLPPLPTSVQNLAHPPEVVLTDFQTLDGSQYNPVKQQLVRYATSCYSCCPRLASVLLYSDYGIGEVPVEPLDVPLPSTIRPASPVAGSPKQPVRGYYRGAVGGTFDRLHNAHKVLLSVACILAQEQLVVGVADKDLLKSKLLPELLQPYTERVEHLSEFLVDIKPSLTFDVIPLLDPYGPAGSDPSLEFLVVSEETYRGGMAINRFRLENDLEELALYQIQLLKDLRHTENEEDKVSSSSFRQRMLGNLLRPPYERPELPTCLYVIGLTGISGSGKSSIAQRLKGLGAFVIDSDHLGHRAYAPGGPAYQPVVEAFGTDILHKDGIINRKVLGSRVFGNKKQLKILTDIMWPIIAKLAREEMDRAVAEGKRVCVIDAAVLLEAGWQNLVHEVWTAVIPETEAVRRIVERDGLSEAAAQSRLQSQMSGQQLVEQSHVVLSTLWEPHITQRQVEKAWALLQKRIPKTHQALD
UniProt Q6PJW8: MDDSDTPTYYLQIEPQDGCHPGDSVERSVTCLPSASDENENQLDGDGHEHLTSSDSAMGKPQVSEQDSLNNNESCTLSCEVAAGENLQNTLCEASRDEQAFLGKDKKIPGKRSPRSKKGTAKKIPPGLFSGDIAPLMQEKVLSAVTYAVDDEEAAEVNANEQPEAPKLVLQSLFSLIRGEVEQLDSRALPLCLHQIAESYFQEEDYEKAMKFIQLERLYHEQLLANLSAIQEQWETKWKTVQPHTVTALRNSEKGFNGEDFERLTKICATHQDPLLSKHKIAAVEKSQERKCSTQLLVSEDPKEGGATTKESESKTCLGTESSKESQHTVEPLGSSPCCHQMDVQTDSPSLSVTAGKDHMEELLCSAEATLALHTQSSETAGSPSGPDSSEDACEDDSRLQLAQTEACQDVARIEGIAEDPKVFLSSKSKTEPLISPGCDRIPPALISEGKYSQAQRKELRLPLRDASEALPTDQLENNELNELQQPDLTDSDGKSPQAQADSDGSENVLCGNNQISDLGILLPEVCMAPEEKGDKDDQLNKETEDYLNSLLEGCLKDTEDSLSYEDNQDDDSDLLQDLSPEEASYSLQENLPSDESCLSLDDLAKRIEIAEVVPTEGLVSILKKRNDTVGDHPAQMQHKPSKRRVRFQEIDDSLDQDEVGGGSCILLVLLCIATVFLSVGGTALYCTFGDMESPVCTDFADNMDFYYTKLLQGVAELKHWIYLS
UniProt Q9Y2B0: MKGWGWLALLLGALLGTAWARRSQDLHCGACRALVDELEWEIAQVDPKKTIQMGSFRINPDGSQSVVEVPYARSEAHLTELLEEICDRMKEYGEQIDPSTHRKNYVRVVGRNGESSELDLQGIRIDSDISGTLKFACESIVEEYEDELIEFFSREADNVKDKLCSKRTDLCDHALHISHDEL
UniProt Q9UBW8: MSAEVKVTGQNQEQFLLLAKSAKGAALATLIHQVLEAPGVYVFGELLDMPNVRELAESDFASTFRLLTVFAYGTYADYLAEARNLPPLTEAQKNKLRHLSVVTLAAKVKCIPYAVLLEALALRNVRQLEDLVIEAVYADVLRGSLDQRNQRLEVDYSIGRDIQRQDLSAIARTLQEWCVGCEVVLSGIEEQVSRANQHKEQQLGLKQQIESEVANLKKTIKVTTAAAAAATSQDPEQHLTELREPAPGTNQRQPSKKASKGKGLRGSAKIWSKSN
UniProt Q14019: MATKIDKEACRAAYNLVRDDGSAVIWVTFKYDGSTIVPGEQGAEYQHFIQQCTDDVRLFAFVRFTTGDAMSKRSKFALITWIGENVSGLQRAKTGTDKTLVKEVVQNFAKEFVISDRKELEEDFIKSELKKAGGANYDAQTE
UniProt P14854, whole entry, looked up: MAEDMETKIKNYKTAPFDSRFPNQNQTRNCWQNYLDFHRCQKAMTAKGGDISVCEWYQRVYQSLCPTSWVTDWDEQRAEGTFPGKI

Assays:
Test in all cases: log2 fold change, soluble protein after heating vs DMSO (PISA); higher = thermal stabilisation; K562 lysate, 10 uM; active = over 0.2 and 3.5 SD of the protein, either way, in both replicates (recomputed)
nilotinib = compound: Cc1cn(-c2cc(NC(=O)c3ccc(C)c(Nc4nccc(-c5cccnc5)n4)c3)cc(C(F)(F)F)c2)cn1 [nilotinib]
How it was run: (§1)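 K562 pellets were dounce-homogenised in PBS pH 7.4 with 1 mM MgCl2, and the crude extract at 1 mg/mL protein was treated with 10 μM compound for 30 min. Aliquots were heated for 3 min across 48°C-58°C, pooled, and brought to 0.5% NP-40 at 4°C; soluble protein was the supernatant after 21,000xg for 90 min. Soluble protein was quantified by TMTpro 16plex LC-MS/MS with channel sums equalised, and reported as log2 fold change in thermal stability against DMSO controls, with values from duplicates.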

[1] = compound: Cc1nc(Nc2n[nH]c3c2CN(C(=O)N[C@H](CN(C)C)c2ccccc2)C3(C)C)c2sccc2n1
How it was run: as §1

dasatinib = compound: Cc1nc(Nc2ncc(C(=O)Nc3c(C)cccc3Cl)s2)cc(N2CCN(CCO)CC2)n1 [dasatinib]
How it was run: as §1

[2] = compound: Cc1ncc(-c2ccnc(Nc3ccc(S(C)(=O)=O)cc3)n2)n1C(C)C
How it was run: as §1

[3] = compound: Cn1cc(-c2ccc3c(c2)CCN3C(=O)Cc2cccc(C(F)(F)F)c2)c2c(N)ncnc21
How it was run: as §1

quisinostat = compound: Cn1cc(CNCC2CCN(c3ncc(C(=O)NO)cn3)CC2)c2ccccc21 [quisinostat]
How it was run: as §1

tipifarnib = compound: Cn1cncc1[C@@](N)(c1ccc(Cl)cc1)c1ccc2c(c1)c(-c1cccc(Cl)c1)cc(=O)n2C [tipifarnib]
How it was run: as §1

[4] = compound: NC(=O)Nc1cc(-c2cccc(F)c2)sc1C(=O)N[C@H]1CCCNC1
How it was run: as §1

[5] = compound: NC(=O)c1cnc(N[C@@H]2CCCC[C@@H]2N)nc1Nc1cccc(-n2nccn2)c1
How it was run: as §1

[6] = compound: NC1(c2ccc(-c3nc4ccn5c(=O)[nH]nc5c4cc3-c3ccccc3)cc2)CCC1
How it was run: as §1

Target | log2 fold change (nilotinib) | log2 fold change [1] | log2 fold change (dasatinib) | log2 fold change [2] | log2 fold change [3] | log2 fold change (quisinostat) | log2 fold change (tipifarnib) | log2 fold change [4] | log2 fold change [5] | log2 fold change [6]
CNIH4 (UniProt Q9P003) | inactive: 0.074 | inactive: -0.327 | inactive: 0.132 | inactive: -0.12 | inactive: 0.063 | inactive: -0.068 | active: -0.515 | inactive: 0.088 | inactive: 0.076 | inactive: -0.136
CPPED1 (UniProt Q9BRF8) | inactive: -0.035 | inactive: 0.044 | inactive: -0.047 | inactive: -0.032 | inactive: -0.016 | inactive: -0.091 | inactive: 0.021 | inactive: -0.021 | inactive: -0.001 | inactive: 0.001
COPS6 (UniProt Q7L5N1) | inactive: 0.017 | inactive: -0.025 | inactive: -0.004 | inactive: -0.023 | inactive: -0.027 | inactive: 0.032 | inactive: 0.067 | inactive: -0.012 | inactive: 0.005 | inactive: 0.04
CNOT6L (UniProt Q96LI5) | inactive: -0.026 | inactive: 0.016 | inactive: -0.053 | inactive: 0.001 | inactive: 0.01 | inactive: -0.054 | inactive: -0.047 | inactive: 0.055 | inactive: -0.024 | inactive: 0.003
CRADD (UniProt P78560) | inactive: 0.016 | inactive: -0.079 | inactive: -0.096 | inactive: -0.034 | inactive: -0.011 | inactive: -0.054 | inactive: -0.039 | inactive: 0.03 | inactive: 0.074 | inactive: -0.058
COX15 (UniProt Q7KZN9) | inactive: 0.028 | inactive: -0.032 | inactive: -0.006 | inactive: 0.011 | inactive: 0 | inactive: -0.052 | inactive: -0.025 | inactive: 0.003 | inactive: -0.028 | inactive: -0.034
COLGALT2 (UniProt Q8IYK4) | inactive: 0.005 | inactive: -0.012 | inactive: 0.002 | inactive: -0.014 | inactive: 0.037 | inactive: 0.028 | inactive: -0.001 | inactive: 0.005 | inactive: -0.008 | inactive: -0.021
CORO7 isoform 3 (UniProt P57737) | inactive: -0.006 | inactive: 0.003 | inactive: -0.032 | inactive: 0.01 | inactive: 0.019 | inactive: -0.026 | inactive: 0.005 | inactive: 0.012 | inactive: -0.016 | inactive: -0.013
COPS2 (UniProt P61201) | inactive: -0.019 | inactive: -0.002 | inactive: 0.042 | inactive: -0.038 | inactive: 0.088 | inactive: -0.206 | inactive: -0.085 | inactive: 0.011 | inactive: 0.084 | 
COPG1 (UniProt Q9Y678) | inactive: 0 | inactive: -0.003 | inactive: -0.01 | inactive: 0.008 | inactive: 0.009 | inactive: 0.003 | inactive: -0.003 | inactive: -0.017 | inactive: -0.002 | inactive: -0.003
COP1 (UniProt Q8NHY2) | inactive: 0.123 | inactive: 0.019 | inactive: 0.017 | inactive: 0.054 | inactive: 0.019 | inactive: -0.023 | inactive: -0.114 | inactive: 0.044 | inactive: 0.027 | inactive: 0.163
COMMD10 (UniProt Q9Y6G5) | inactive: -0.032 | inactive: -0.018 | inactive: 0.007 | inactive: 0.021 | inactive: -0.034 | inactive: 0.049 | inactive: 0.02 | inactive: -0.032 | inactive: -0.046 | inactive: -0.02
COMMD9 (UniProt Q9P000) | inactive: 0.136 | inactive: 0.008 | inactive: 0 | inactive: -0.156 | inactive: -0.025 | inactive: 0.048 | inactive: 0.136 | inactive: -0.054 | inactive: -0.105 | inactive: -0.011
CPSF6 isoform 2 (UniProt Q16630) | inactive: 0.01 | inactive: -0.055 | inactive: -0.021 | inactive: -0.006 | inactive: 0.009 | inactive: 0.102 | inactive: 0.019 | inactive: -0.032 | inactive: 0.004 | inactive: 0.052
COPS3 (UniProt Q9UNS2) | inactive: -0.019 | inactive: 0.014 | inactive: 0.016 | inactive: 0.01 | inactive: -0.045 | inactive: -0.045 | inactive: 0.005 | inactive: 0.026 | inactive: -0.01 | inactive: -0.027
COMMD5 (UniProt Q9GZQ3) | inactive: -0.003 | inactive: 0.035 | inactive: -0.035 | inactive: 0.006 | inactive: 0.019 | inactive: -0.03 | inactive: 0.051 | inactive: -0.006 | inactive: 0.006 | inactive: -0.031
COQ5 (UniProt Q5HYK3) | inactive: 0.006 | inactive: 0.012 | inactive: -0.025 | inactive: -0.008 | inactive: 0.001 | inactive: -0.043 | inactive: 0.004 | inactive: 0.002 | inactive: -0.027 | inactive: 0.022
CPS1 isoform 3 (UniProt P31327) | inactive: 0.156 | inactive: -0.006 | inactive: 0.092 | inactive: 0.019 | inactive: -0.046 | inactive: -0.285 | inactive: 0.052 | inactive: 0.065 | inactive: 0.194 | inactive: 0.077
COPS7B isoform 3 (UniProt Q9H9Q2) | inactive: 0.062 | inactive: 0.018 | inactive: -0.011 | inactive: -0.017 | inactive: -0.018 | inactive: 0.039 | inactive: -0.033 | inactive: -0.034 | inactive: -0.042 | inactive: -0.027
COX18 (UniProt Q8N8Q8) | inactive: -0.007 | inactive: 0.01 | inactive: -0.015 | inactive: 0.016 | inactive: -0.049 | inactive: -0.031 | inactive: -0.029 | inactive: 0.003 | inactive: -0.002 | inactive: -0.05
COPE (UniProt O14579) | inactive: -0.009 | inactive: -0.011 | inactive: -0.058 | inactive: -0.057 | inactive: -0.006 | inactive: -0.117 | inactive: 0.015 | inactive: 0.026 | inactive: 0.006 | inactive: -0.02
COPRS (UniProt Q9NQ92) | inactive: -0.122 | inactive: 0.038 | inactive: -0.037 | inactive: 0.038 | inactive: 0.017 | inactive: -0.044 | inactive: 0.018 | inactive: 0.041 | inactive: -0.069 | inactive: -0.04
CPT1A (UniProt P50416) | inactive: -0.012 | inactive: 0.049 | inactive: 0.015 | inactive: -0.022 | inactive: 0.008 | active: 0.308 | inactive: 0.056 | inactive: -0.09 | inactive: -0.028 | inactive: -0.038
COMMD1 (UniProt Q8N668) | inactive: 0.042 | inactive: -0.016 | inactive: -0.057 | inactive: 0.038 | inactive: 0.023 | inactive: -0.018 | inactive: 0.093 | inactive: 0.012 | inactive: 0.009 | inactive: -0.039
COASY isoform 2 (UniProt Q13057) | inactive: -0.043 | inactive: -0.015 | inactive: -0.071 | inactive: -0.023 | inactive: 0.069 | inactive: -0.078 | inactive: 0.012 | inactive: 0.041 | inactive: -0.023 | inactive: -0.046
CNST (UniProt Q6PJW8) | inactive: 0.125 | inactive: 0.029 | inactive: 0.023 | inactive: -0.123 | inactive: 0 | inactive: -0.005 | inactive: 0.054 | inactive: -0.002 | inactive: 0 | inactive: 0.041
CNPY2 (UniProt Q9Y2B0) | inactive: 0.01 | inactive: -0.005 | inactive: 0.047 | inactive: -0.048 | inactive: -0.01 | inactive: 0.013 | inactive: -0.005 | inactive: -0.02 | inactive: -0.016 | inactive: 0.006
COPS7A (UniProt Q9UBW8) | inactive: 0.037 | inactive: 0.014 | inactive: 0.006 | inactive: 0.037 | inactive: 0.027 | inactive: -0.021 | inactive: 0.015 | inactive: 0.024 | inactive: 0.01 | inactive: 0.015
COTL1 (UniProt Q14019) | inactive: 0.021 | inactive: 0.003 | inactive: 0.024 | inactive: 0.031 | inactive: 0.023 | inactive: 0.017 | inactive: 0.055 | inactive: -0.075 | inactive: -0.028 | inactive: -0.011
COX6B1 (UniProt P14854) | inactive: 0.04 | inactive: 0.007 | inactive: 0.105 | inactive: 0.029 | inactive: 0.003 | inactive: -0.017 | inactive: 0.031 | inactive: -0.084 | inactive: -0.031 | inactive: 0.075

Copied from the list:
log2 fold change (tipifarnib) with COPS6 (UniProt Q7L5N1) is entered as inactive: 0.067
log2 fold change [2] with COMMD9 (UniProt Q9P000) is entered as inactive: -0.156
